Source: paper PMC11005723, “Development of Complementary Photo‐arginine/lysine to Promote Discovery of Arg/Lys hPTMs Interactomes” (Advanced Science, 2024)
These are yes or no findings as the source states them, for the method shown. In cells and extracts the contact can be indirect. These calls come from enrichment with a bait or labelling near it, and not all partners need be listed.

By UniProt entry, the sequences of proteins in these tests, tags left out.
UniProt Q969R5: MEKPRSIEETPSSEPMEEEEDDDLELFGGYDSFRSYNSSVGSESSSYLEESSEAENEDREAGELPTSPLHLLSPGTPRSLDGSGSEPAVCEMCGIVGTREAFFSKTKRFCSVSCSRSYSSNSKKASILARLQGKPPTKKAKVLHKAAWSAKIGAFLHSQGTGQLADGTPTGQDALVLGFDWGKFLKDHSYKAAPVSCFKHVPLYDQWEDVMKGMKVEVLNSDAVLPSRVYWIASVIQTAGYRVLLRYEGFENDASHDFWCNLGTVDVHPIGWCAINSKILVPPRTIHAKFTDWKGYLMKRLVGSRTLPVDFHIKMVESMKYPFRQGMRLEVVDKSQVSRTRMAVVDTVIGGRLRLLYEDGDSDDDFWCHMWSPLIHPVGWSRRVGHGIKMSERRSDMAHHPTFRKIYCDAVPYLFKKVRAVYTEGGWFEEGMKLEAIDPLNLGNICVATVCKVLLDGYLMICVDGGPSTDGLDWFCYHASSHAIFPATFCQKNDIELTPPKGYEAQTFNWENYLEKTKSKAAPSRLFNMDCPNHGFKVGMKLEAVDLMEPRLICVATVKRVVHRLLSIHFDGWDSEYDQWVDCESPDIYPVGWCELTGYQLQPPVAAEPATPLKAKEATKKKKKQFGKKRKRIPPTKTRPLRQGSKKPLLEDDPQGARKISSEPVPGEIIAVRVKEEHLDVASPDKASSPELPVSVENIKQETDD
UniProt O15047: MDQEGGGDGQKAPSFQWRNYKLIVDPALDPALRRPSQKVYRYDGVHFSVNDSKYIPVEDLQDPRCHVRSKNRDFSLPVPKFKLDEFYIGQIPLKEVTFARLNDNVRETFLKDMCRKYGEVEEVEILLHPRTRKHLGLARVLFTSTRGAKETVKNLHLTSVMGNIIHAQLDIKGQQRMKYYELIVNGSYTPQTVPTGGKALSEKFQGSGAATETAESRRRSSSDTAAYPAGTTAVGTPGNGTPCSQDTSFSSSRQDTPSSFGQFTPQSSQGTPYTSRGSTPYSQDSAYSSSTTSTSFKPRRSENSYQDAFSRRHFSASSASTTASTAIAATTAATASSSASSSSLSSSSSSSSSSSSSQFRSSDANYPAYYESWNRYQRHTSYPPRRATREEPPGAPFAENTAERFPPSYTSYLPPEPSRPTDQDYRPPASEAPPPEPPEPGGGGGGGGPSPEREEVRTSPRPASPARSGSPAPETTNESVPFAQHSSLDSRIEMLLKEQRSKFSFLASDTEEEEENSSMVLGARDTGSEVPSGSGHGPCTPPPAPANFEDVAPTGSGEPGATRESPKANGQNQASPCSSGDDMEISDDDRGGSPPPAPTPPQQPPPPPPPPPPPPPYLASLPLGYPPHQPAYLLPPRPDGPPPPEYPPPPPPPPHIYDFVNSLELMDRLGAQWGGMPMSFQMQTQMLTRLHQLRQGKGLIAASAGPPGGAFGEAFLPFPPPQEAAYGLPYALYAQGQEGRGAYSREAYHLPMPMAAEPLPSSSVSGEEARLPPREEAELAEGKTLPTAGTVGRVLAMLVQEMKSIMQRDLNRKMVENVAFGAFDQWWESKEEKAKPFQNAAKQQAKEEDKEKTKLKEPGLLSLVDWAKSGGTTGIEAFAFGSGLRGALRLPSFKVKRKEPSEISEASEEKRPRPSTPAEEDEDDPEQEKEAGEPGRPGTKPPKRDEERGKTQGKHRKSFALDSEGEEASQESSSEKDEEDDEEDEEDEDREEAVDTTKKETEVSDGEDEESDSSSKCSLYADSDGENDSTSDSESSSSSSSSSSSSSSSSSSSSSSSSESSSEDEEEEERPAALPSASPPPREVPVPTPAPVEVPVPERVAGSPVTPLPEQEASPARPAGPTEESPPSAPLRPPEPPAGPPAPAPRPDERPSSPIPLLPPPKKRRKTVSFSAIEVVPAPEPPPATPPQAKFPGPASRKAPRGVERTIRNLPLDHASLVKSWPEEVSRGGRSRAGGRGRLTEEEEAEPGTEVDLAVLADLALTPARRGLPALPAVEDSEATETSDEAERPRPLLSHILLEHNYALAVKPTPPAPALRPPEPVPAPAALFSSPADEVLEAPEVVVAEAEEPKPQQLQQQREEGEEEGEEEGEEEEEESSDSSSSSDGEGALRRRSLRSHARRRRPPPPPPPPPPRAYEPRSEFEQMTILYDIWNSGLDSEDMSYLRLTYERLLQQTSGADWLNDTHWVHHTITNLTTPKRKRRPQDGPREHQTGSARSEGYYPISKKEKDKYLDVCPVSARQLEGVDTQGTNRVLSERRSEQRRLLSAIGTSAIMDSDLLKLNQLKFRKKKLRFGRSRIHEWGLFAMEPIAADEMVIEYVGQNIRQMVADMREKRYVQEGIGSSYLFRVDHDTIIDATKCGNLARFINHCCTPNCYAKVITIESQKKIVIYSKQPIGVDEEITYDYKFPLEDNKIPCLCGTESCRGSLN

Legend:
Test in all cases: affinity purification with mass spectrometry; SILAC; 10 µM biotinylated diazirine peptide probes with heavy or light HEK293T nuclear lysate (0.5 mg/mL), 4 °C 1 h, 365 nm UV 30 min on ice, mixed, denatured in SDS, streptavidin agarose, washes with 1% SDS and 4 M urea, LC-MS/MS; only the target purified
H4K5me2 (probe 7) = molecular target: T1, H4K5me2 (probe 7)
T1 sequence (peptide, photo-arginine R(dz) at 3; dimethyl-lysine at 5; K(biotin) at 15): SGRGKGGKGLGKGGK

H4K5me (probe 6) = molecular target: T2, H4K5me (probe 6)
T2 sequence (peptide, photo-arginine R(dz) at 3; monomethyl-lysine at 5; K(biotin) at 15): SGRGKGGKGLGKGGK

H3R2 (probe 3) = molecular target: H3R2 (probe 3)

“Lethal(3)malignant brain tumor‐like protein 2 (L3MBTL2) (from UniProt Q969R5 1-705)” was tested, and the binding (H4K5me2 (probe 7)) was “binds” and the binding (H4K5me (probe 6)) was “binds”.

In the case of “SETD1A (from UniProt O15047 1-1707) (enzyme)”, the binding (H3R2 (probe 3)) is reported as “binds”.
